Laboratory results taken from PMC11432330, “Novel Drug-like HsrA Inhibitors Exhibit Potent Narrow-Spectrum Antimicrobial Activities against Helicobacter pylori” (International Journal of Molecular Sciences, 2024).
Further values from the same series stand in other lists.

System: H. pylori 26695
Assay: In vivo inhibition of HsrA: RNA-Seq transcriptomic analysis of exposed cells
Format: cell-based, Helicobacter pylori
Description: Bacterial growth from three blood agar plates of H. pylori ATCC 700392 (aka 26695) incubated for 48 h at 37 °C under microaerobic conditions was aseptically resuspended in BHI + FBS and adjusted to 10^7 CFU/mL. BHI broth cultures were incubated microaerobically at 37 °C for 24 h. […] At this time, bacterial growth was stopped by adding 1.5 mL ice-cold RNA stop solution (95% absolute ethanol, 5% acid-buffered phenol) and subsequently incubated on ice. Control samples were exposed to the same amount of DMSO instead of the inhibitor. Helicobacter cells from all samples were harvested by centrifugation (4000 rpm at 4 °C for 10 min), then the pellets were quickly frozen by immersion in liquid nitrogen and stored at −80 °C.
RNA-Seq analysis was performed by GENEWIZ (Azenta Life Sciences, Leipzig, Germany). Frozen cell pellets from two biological replicates of each treatment condition were properly submitted to GENEWIZ in dry ice. RNA-Seq libraries were prepared according to standard protocols via rRNA depletion, RNA fragmentation and random priming, reverse transcription, 5’-phosphorylation and dA-tailing of cDNAs, adaptor ligation, and PCR enrichment. Once the quality of each library was confirmed, they were sequenced on an Illumina NovaSeq 6000 (Illumina, San Diego, CA, USA) with 150-bp paired-ends. Raw sequence reads were filtered to remove possible adapter sequences and nucleotides with poor quality using Trimmomatic v.0.36 [105]. The trimmed reads were subsequently mapped to the H. pylori strain 26695 reference genome NC_000915.1 available on NCBI, by using the Bowtie2 aligner v.2.2.6 [106]. Unique gene hit counts were calculated by using featureCounts from the Subread package v.1.5.2. Only unique reads that fell within the gene regions were counted. Using DESeq2 [108], a comparison of the gene expression between the control and treated groups of samples was performed. The Wald test was used to generate p-values and log2 fold changes. Genes with an adjusted p-value < 0.05 and absolute log2 fold change >1 were considered as differentially expressed genes (DEGs) for each comparison. The RNA-Seq data generated in this study have been deposited in ArrayExpress with the accession number E-MTAB-14255.

NC(=NOC(=O)Nc1ccc(Cl)cc1)c1csc([N+](=O)[O-])c1 [Ligand V, N′-{[(4-chloroanilino)carbonyl]}oxy-5-nitrothiophene-3-carboximidamide]
log2 Fold Change (gene HP0251, exposed to lethal concentrations vs control): 1.533 | log2 Fold Change (gene HP0252, exposed to lethal concentrations vs control): -0.703 | log2 Fold Change (gene HP0255, exposed to lethal concentrations of V vs control): 0.689 | log2 Fold Change (gene HP0256, exposed to lethal concentration of V vs control): -1.073 | log2 Fold Change (gene HP0260, exposed to lethal concentrations of V vs control): 0.900 | log2 Fold Change (gene HP0261, exposed to lethal concentrations vs control): 1.452 | log2 Fold Change (gene HP0262, exposed to lethal concentrations vs control): 1.538 | log2 Fold Change (gene HP0264, exposed to lethal concentrations vs control): 1.690 | log2 Fold Change (gene HP0265, exposed to lethal concentrations of V vs control): 0.976 | log2 Fold Change (gene HP0270, exposed to lethal concentrations vs control): -0.071 | log2 Fold Change (gene HP0271, exposed to lethal concentrations vs control): 0.033 | log2 Fold Change (gene HP0272, exposed to lethal concentrations vs control): -0.869 | log2 Fold Change (gene HP0273, exposed to lethal concentration of V vs control): -1.270 | log2 Fold Change (gene HP0274, exposed to lethal concentrations vs control): -0.769 | log2 Fold Change (gene HP0275, exposed to lethal concentrations vs control): -0.055 | log2 Fold Change (gene HP0277, exposed to lethal concentrations vs control): -0.724 | log2 Fold Change (gene HP0278, exposed to lethal concentrations vs control): -0.628 | log2 Fold Change (gene HP0279, exposed to lethal concentrations vs control): -0.763 | log2 Fold Change (gene HP0280, exposed to lethal concentration of V vs control): -1.198 | log2 Fold Change (gene HP0284, exposed to lethal concentrations vs control): -0.801 | log2 Fold Change (gene HP0286, exposed to lethal concentrations vs control): 0.009 | log2 Fold Change (gene HP0287, exposed to lethal concentrations vs control): -0.023 | log2 Fold Change (gene HP0288, exposed to lethal concentrations vs control): -0.627 | log2 Fold Change (gene HP0289, exposed to lethal concentrations vs control): 0.047 | log2 Fold Change (gene HP0299, exposed to lethal concentrations of V vs control): 0.654 | log2 Fold Change (gene HP0300, exposed to lethal concentrations of V vs control): 0.931 | log2 Fold Change (gene HP0301, exposed to lethal concentrations of V vs control): 0.887 | log2 Fold Change (gene HP0302, exposed to lethal concentrations of V vs control): 0.500 | log2 Fold Change (gene HP0306, exposed to lethal concentrations vs control): -0.700 | log2 Fold Change (gene HP0307, exposed to lethal concentration of V vs control): -1.080 | log2 Fold Change (gene HP0308, exposed to lethal concentration of V vs control): -2.061 | log2 Fold Change (gene HP0309, exposed to lethal concentrations vs control): 1.051 | log2 Fold Change (gene HP0310, exposed to lethal concentrations vs control): 2.227 | log2 Fold Change (gene HP0311, exposed to lethal concentrations vs control): 2.111 | log2 Fold Change (gene HP0312, exposed to lethal concentrations of V vs control): 0.934 | log2 Fold Change (gene HP0317, exposed to lethal concentrations vs control): 1.450 | log2 Fold Change (gene HP0318, exposed to lethal concentrations vs control): -0.733 | log2 Fold Change (gene HP0323, exposed to lethal concentrations vs control): 0.108 | log2 Fold Change (gene HP0324, exposed to lethal concentrations vs control): -0.008 | log2 Fold Change (gene HP0326, exposed to lethal concentrations vs control): -0.070 | log2 Fold Change (gene HP0327, exposed to lethal concentration of V vs control): -1.337 | log2 Fold Change (gene HP0330, exposed to lethal concentrations vs control): 1.539 | log2 Fold Change (gene HP0331, exposed to lethal concentrations vs control): 1.107 | log2 Fold Change (gene HP0333, exposed to lethal concentrations of V vs control): 0.746 | log2 Fold Change (gene HP0334, exposed to lethal concentrations of V vs control): 0.504 | log2 Fold Change (gene HP0337, exposed to lethal concentrations vs control): -0.759 | log2 Fold Change (gene HP0341, exposed to lethal concentrations of V vs control): 0.522 | log2 Fold Change (gene HP0342, exposed to lethal concentrations of V vs control): 0.938 | log2 Fold Change (gene HP0354, exposed to lethal concentrations vs control): -0.640 | log2 Fold Change (gene HP0356, exposed to lethal concentration of V vs control): -1.256 | log2 Fold Change (gene HP0357, exposed to lethal concentrations vs control): 1.028 | log2 Fold Change (gene HP0358, exposed to lethal concentrations vs control): 0.072 | log2 Fold Change (gene HP0362, exposed to lethal concentrations vs control): -0.779 | log2 Fold Change (gene HP0366, exposed to lethal concentrations of V vs control): 0.788 | log2 Fold Change (gene HP0371, exposed to lethal concentration of V vs control): -1.171 | log2 Fold Change (gene HP0373, exposed to lethal concentrations vs control): 0.010 | log2 Fold Change (gene HP0374, exposed to lethal concentrations vs control): -0.069 | log2 Fold Change (gene HP0375, exposed to lethal concentrations vs control): -0.048 | log2 Fold Change (gene HP0377, exposed to lethal concentration of V vs control): -1.365 | log2 Fold Change (gene HP0378, exposed to lethal concentration of V vs control): -1.179 | log2 Fold Change (gene HP0379, exposed to lethal concentrations vs control): -0.769 | log2 Fold Change (gene HP0380, exposed to lethal concentrations vs control): 1.024 | log2 Fold Change (gene HP0381, exposed to lethal concentrations of V vs control): 0.844 | log2 Fold Change (gene HP0382, exposed to lethal concentrations vs control): 1.070 | log2 Fold Change (gene HP0383, exposed to lethal concentrations vs control): -0.688 | log2 Fold Change (gene HP0384, exposed to lethal concentrations of V vs control): 0.582 | log2 Fold Change (gene HP0387, exposed to lethal concentrations vs control): -0.650 | log2 Fold Change (gene HP0388, exposed to lethal concentrations of V vs control): 0.531 | log2 Fold Change (gene HP0389, exposed to lethal concentrations vs control): 1.281 | log2 Fold Change (gene HP0390, exposed to lethal concentrations of V vs control): 0.839 | log2 Fold Change (gene HP0392, exposed to lethal concentrations of V vs control): 0.889 | log2 Fold Change (gene HP0394, exposed to lethal concentration of V vs control): -0.966 | log2 Fold Change (gene HP0395, exposed to lethal concentrations vs control): -0.644 | log2 Fold Change (gene HP0398, exposed to lethal concentration of V vs control): -1.123 | log2 Fold Change (gene HP0404, exposed to lethal concentrations vs control): -0.086 | log2 Fold Change (gene HP0407, exposed to lethal concentrations vs control): 1.072 | log2 Fold Change (gene HP0410, exposed to lethal concentration of V vs control): -1.073 | log2 Fold Change (gene HP0414, exposed to lethal concentrations vs control): -0.016 | log2 Fold Change (gene HP0415, exposed to lethal concentrations vs control): -0.127 | log2 Fold Change (gene HP0419, exposed to lethal concentrations vs control): -0.107 | log2 Fold Change (gene HP0422, exposed to lethal concentrations vs control): 0.145 | log2 Fold Change (gene HP0423, exposed to lethal concentrations of V vs control): 0.874 | log2 Fold Change (gene HP0424, exposed to lethal concentrations vs control): 1.411 | log2 Fold Change (gene HP0425, exposed to lethal concentrations vs control): 1.149 | log2 Fold Change (gene HP0426, exposed to lethal concentrations vs control): 1.220 | log2 Fold Change (gene HP0428, exposed to lethal concentrations vs control): 0.040 | log2 Fold Change (gene HP0430, exposed to lethal concentrations vs control): -0.078 | log2 Fold Change (gene HP0431, exposed to lethal concentrations vs control): 0.064 | log2 Fold Change (gene HP0438, exposed to lethal concentrations vs control): 1.101 | log2 Fold Change (gene HP0439, exposed to lethal concentrations vs control): 2.298 | log2 Fold Change (gene HP0442, exposed to lethal concentrations of V vs control): 0.900 | log2 Fold Change (gene HP0444, exposed to lethal concentrations vs control): 1.046 | log2 Fold Change (gene HP0446, exposed to lethal concentrations vs control): -0.113 | log2 Fold Change (gene HP0448, exposed to lethal concentrations vs control): 2.651 | log2 Fold Change (gene HP0451, exposed to lethal concentrations vs control): 0.142 | log2 Fold Change (gene HP0453, exposed to lethal concentrations vs control): 1.019 | log2 Fold Change (gene HP0454, exposed to lethal concentrations vs control): 1.419 | log2 Fold Change (gene HP0456, exposed to lethal concentrations vs control): 1.236 | log2 Fold Change (gene HP0457, exposed to lethal concentrations vs control): 1.085 | log2 Fold Change (gene HP0459, exposed to lethal concentrations of V vs control): 0.800 | log2 Fold Change (gene HP0463, exposed to lethal concentrations vs control): -0.006 | log2 Fold Change (gene HP0466, exposed to lethal concentration of V vs control): -1.757 | log2 Fold Change (gene HP0468, exposed to lethal concentrations of V vs control): 0.758 | log2 Fold Change (gene HP0470, exposed to lethal concentrations of V vs control): 0.943 | log2 Fold Change (gene HP0471, exposed to lethal concentrations vs control): 0.057 | log2 Fold Change (gene HP0473, exposed to lethal concentrations vs control): -0.745 | log2 Fold Change (gene HP0475, exposed to lethal concentrations vs control): -0.101 | log2 Fold Change (gene HP0477, exposed to lethal concentrations vs control): -0.077 | log2 Fold Change (gene HP0478, exposed to lethal concentrations of V vs control): 0.596 | log2 Fold Change (gene HP0480, exposed to lethal concentrations of V vs control): 0.516 | log2 Fold Change (gene HP0484, exposed to lethal concentrations vs control): -0.039 | log2 Fold Change (gene HP0486, exposed to lethal concentrations of V vs control): 0.541 | log2 Fold Change (gene HP0487, exposed to lethal concentrations vs control): -0.670 | log2 Fold Change (gene HP0488, exposed to lethal concentrations vs control): 2.617 | log2 Fold Change (gene HP0489, exposed to lethal concentrations vs control): 0.104 | log2 Fold Change (gene HP0490, exposed to lethal concentration of V vs control): -1.773 | log2 Fold Change (gene HP0492, exposed to lethal concentration of V vs control): -1.353 | log2 Fold Change (gene HP0495, exposed to lethal concentration of V vs control): -1.090 | log2 Fold Change (gene HP0497, exposed to lethal concentrations of V vs control): 0.778
